Experimental data from publication PMC2860244.
These are yes or no findings as the source states them, for the method shown. Binding seen in cells or lysates may run through a third protein. Some results given as binding are weak or reduced against the parent protein; the word gives no strength.

Protein sequences, listed by entry. Tags and fused reporters are not part of them.
UniProt P20263: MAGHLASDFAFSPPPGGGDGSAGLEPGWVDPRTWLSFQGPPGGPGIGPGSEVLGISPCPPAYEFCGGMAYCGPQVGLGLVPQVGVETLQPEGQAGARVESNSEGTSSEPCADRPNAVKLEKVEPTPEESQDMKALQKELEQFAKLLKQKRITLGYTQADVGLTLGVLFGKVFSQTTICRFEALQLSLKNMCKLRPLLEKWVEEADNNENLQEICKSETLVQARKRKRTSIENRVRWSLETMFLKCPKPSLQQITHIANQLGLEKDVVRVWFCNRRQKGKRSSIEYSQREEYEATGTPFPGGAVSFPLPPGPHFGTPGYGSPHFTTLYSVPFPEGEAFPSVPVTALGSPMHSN
UniProt P11103: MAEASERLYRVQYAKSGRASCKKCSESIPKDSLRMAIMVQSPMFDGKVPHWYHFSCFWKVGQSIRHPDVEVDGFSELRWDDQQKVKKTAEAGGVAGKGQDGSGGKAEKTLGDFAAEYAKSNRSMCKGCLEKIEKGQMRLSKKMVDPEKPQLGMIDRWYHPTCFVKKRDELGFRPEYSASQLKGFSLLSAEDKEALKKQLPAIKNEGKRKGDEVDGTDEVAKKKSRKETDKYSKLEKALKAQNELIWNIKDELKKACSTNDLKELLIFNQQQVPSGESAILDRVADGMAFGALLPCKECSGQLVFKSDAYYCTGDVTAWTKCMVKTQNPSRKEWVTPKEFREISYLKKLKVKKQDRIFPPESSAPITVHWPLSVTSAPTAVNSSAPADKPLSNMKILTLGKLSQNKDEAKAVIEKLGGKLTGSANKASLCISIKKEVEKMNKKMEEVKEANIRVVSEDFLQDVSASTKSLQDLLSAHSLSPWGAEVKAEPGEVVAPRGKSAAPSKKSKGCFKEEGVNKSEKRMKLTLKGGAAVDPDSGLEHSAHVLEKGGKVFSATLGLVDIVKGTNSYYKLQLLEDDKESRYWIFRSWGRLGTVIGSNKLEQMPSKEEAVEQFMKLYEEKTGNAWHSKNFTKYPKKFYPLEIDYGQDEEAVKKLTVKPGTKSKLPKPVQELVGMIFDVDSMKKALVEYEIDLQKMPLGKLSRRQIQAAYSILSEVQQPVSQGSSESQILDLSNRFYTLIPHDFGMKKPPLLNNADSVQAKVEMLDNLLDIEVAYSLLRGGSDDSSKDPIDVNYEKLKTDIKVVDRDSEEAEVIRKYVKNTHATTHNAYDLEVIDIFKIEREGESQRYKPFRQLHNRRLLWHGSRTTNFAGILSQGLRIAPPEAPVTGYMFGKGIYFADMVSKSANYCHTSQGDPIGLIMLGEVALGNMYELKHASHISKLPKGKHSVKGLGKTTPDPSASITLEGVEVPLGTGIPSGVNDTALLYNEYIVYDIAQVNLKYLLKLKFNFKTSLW

Molecular target: endogenous Oct4 (mouse (endogenous in E14 ESCs)) (UniProt P20263)
Assay: co-IP; Oct4 immunoprecipitated with an Oct4 antibody on Dynal-Protein G beads, in the presence or absence of benzonase; Western blot for Parp1

Substance: Parp1 (from UniProt P11103 1-1013)
- binding: binds
